The text below walks through data of article PMC8752572.

The target of assay [1] is T1, myc-tagged SETD3 (SET domain-containing 3) (UniProt Q86TU7).
T1 sequence: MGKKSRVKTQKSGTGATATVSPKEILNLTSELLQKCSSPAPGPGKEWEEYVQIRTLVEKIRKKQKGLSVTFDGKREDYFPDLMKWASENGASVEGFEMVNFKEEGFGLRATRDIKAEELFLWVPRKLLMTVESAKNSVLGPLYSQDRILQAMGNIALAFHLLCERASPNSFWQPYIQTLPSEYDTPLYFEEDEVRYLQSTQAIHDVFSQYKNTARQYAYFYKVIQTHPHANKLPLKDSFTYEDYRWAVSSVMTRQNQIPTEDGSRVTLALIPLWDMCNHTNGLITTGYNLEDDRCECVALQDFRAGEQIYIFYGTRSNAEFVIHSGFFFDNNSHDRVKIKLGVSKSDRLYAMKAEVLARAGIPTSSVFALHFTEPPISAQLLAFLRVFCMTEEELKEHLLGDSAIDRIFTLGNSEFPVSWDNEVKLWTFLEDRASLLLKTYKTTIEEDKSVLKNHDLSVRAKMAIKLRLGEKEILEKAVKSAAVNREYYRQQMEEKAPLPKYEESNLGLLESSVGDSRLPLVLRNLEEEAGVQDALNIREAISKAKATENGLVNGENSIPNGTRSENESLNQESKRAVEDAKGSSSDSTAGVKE
As to the kind of experiment: co-IP; SETD3 and USP27 plasmids transfected alone or together into 293T cells; immunoprecipitation in both directions and western blot; lysis buffer 50 mM Tris-HCl pH 8.0, 150 mM NaCl, 1% NP-40, 2 mM EDTA, 0.1% SDS; overnight at 4 °C with protein A-Sepharose. For orientation: A western blot detects proteins with antibodies after separation by electrophoresis.

Assay [2] concerns the target T1, myc-tagged SETD3 (SET domain-containing 3). As to the kind of experiment: co-IP; DUB library screen: each Flag-tagged DUB transfected with myc-tagged SETD3 into HEK293T cells, 48 h later co-immunoprecipitation and western blotting.
Assay [3] addresses T2, Flag-SETD3 fusion protein (UniProt Q86TU7).
T2 sequence: T1 sequence
As to the kind of experiment: proximity ligation; in situ PLA (Duolink In Situ Red) in HEK293T cells transfected with myc-USP27 and Flag-SETD3; anti-Flag rabbit and anti-myc mouse antibodies; control: myc-USP27 with empty Flag vector.

Assay [4] addresses T1, myc-tagged SETD3 (SET domain-containing 3). As to the kind of experiment: co-IP; truncated mutants of USP27 tested with SETD3 (Fig. 1I) and of SETD3 with USP27 (Fig. 1J), 'as indicated'; method, cells and tags not named for these panels.
Assay [5] concerns the target T3, Flag-tagged USP27 (ubiquitin-specific peptidase 27) (UniProt A6NNY8).
T3 sequence: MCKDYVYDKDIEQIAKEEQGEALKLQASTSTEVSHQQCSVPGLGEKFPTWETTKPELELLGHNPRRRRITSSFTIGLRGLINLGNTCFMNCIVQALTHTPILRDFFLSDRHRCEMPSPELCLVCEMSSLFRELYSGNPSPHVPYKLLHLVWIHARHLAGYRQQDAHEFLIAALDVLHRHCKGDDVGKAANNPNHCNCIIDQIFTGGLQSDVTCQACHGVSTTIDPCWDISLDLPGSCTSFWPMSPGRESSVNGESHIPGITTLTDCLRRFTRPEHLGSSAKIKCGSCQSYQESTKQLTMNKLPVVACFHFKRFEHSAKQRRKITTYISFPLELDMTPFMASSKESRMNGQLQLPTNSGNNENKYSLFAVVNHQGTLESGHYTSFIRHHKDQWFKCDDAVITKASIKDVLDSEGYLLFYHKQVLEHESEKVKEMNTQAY
In words: co-IP; SETD3 and USP27 plasmids transfected alone or together into 293T cells; immunoprecipitation in both directions and western blot; lysis buffer 50 mM Tris-HCl pH 8.0, 150 mM NaCl, 1% NP-40, 2 mM EDTA, 0.1% SDS; overnight at 4 °C with protein A-Sepharose.

Assay [6] deals with T4, USP27, endogenous in Hep3B cells (human (endogenous in Hep3B)) (UniProt A6NNY8).
T4 sequence: T3 sequence
As to the kind of experiment: co-IP; endogenous proteins in Hep3B cells; immunoprecipitation with anti-USP27 or normal rabbit IgG, blot for SETD3.

The target in a further assay is T5, GST-USP27 fusion protein (UniProt A6NNY8).
T5 sequence: T3 sequence
In words: pull-down; 5 μg GST-USP27 mixed with 5 μg purified Flag-SETD3, incubated with GST binding resins at 4 °C for 8 h, washed three times, western blot; both purified.

No constants are given. Whether binding was seen depends on the method and setting. For some of these results: In cells and extracts the contact can be indirect. Some results given as binding are weak or reduced against the parent protein; the word gives no strength. For some of these results: Tags and fused reporters may be left off the sequences shown.

B1: Flag-tagged USP27 (ubiquitin-specific peptidase 27) (enzyme, UniProt A6NNY8 1-438)
chain: T3 sequence
Turning to B1, the binding result in assay [1] and in assay [2] was “binds” each time.

B2: myc-USP27 (enzyme, UniProt A6NNY8 1-438)
chain: T3 sequence
As to B2, the binding entry in assay [3] was “binds”.

B3: USP27 C-terminal 78-422 fragment (domain or fragment, UniProt A6NNY8 78-422)
chain: RGLINLGNTCFMNCIVQALTHTPILRDFFLSDRHRCEMPSPELCLVCEMSSLFRELYSGNPSPHVPYKLLHLVWIHARHLAGYRQQDAHEFLIAALDVLHRHCKGDDVGKAANNPNHCNCIIDQIFTGGLQSDVTCQACHGVSTTIDPCWDISLDLPGSCTSFWPMSPGRESSVNGESHIPGITTLTDCLRRFTRPEHLGSSAKIKCGSCQSYQESTKQLTMNKLPVVACFHFKRFEHSAKQRRKITTYISFPLELDMTPFMASSKESRMNGQLQLPTNSGNNENKYSLFAVVNHQGTLESGHYTSFIRHHKDQWFKCDDAVITKASIKDVLDSEGYLLFYHKQV
As to B3, in assay [4], the binding entry is recorded as “binds”.

B4: myc-tagged SETD3 (SET domain-containing 3) (enzyme, UniProt Q86TU7 1-594)
chain: T1 sequence
For B4, in assay [5], the binding result was “binds”.

B5: SETD3, endogenous in Hep3B cells (enzyme, UniProt Q86TU7 1-594)
chain: T1 sequence
On to B5, for which the binding entry in assay [6] is “binds”.

B6: Flag-SETD3 fusion protein (enzyme, UniProt Q86TU7 1-594)
chain: T1 sequence
Take B6: the binding result with GST-USP27 fusion protein is “binds”.
